From PubChem BioAssay (EPA / NIEHS)
The inconclusive results got no clear call from the source; some entries with a clear call stand among them for comparison. A potency beside an inconclusive call is a rough fit, not a confirmed value. Activity calls are given as the source filed them. Rule for the calls: active = hit-call score of the fitted dose curve at least 0.9, where 1 is the maximum; inconclusive = response in the unintended direction; inactive = score below 0.9.

Test: ATG_GAL4_TRANS: Attagene TRANS-FACTORIAL HepG2 Assay for GAL4 (Internal Marker) (AID 2282976)
Settings: HepG2 Attagene TRANS GAL4 internal marker reporter
Procedure: ATG_TRANS is a cell-based, multiplexed-readout assay that uses HepG2, a human liver cell line, with measurements taken at 24 hours after chemical dosing in a 24-well plate.ATG_GAL4_TRANS is one of 30 assay component(s) measured or calculated from the ATG_TRANS assay. It is designed to make measurements of mRNA induction, a form of inducible reporter, as detected with fluorescence intensity signals by Reverse transcription polymerase chain reaction (RT-PCR) and Capillary electrophoresis technology.Data from the assay component ATG_GAL4_TRANS was analyzed into 1 assay endpoint. This assay endpoint, ATG_GAL4_TRANS, was analyzed in the positive analysis fitting direction relative to DMSO as the negative control and baseline of activity. Using a type of inducible reporter, measures of mRNA for gain-of-signal activity can be used to understand the background control at the transcription factor-level as they relate to the gene . Furthermore, this assay endpoint can be referred to as a secondary readout, because this assay has produced multiple assay endpoints where this one serves a background control function. To generalize the intended target to other relatable targets, this assay endpoint is annotated to the background measurement intended target family, where the subfamily is baseline control.
Human liver HepG2 cells are transiently transfected with multiple reporter transcription units (MRTUs) in 6-well plates using FuGene 6 reagent (Roche; 3 ml FuGene/1 mg DNA). The MRTU constructs are regulated by a cis-regulating element (promoter). […] A major difference between the CIS and TRANS system is that in CIS activities of endogenous TFs are measured, whereas the TRANS assay evaluates changes in activities of exogenous, chimeric NR-Gal4 proteins. […] At the end of 24 hour incubation, total RNA was isolated using TriZol reagent (Invitrogen). The isolated RNA is then reverse-transcribed using oligo(dT) primer and Mo-MLV reverse transcriptase (Invitrogen) with DNAse I (Ambion) treatment for 30 min. The one-tenth of the produced cDNA was amplified by PCR using Taq DNA polymerase (Invitrogen) and two reporter sequence-specific primers. The PCR products were fluorescently labeled by primer extension with 6-arboxyfluorescein (6-FAM) 5'-labeled reporter sequence-specific primer (2 min at 95 C, 20 s at 68 C and 10 min at 72 C) and these products were digested with 5U of HpaI (New England Biolabs) for 2h at 37 C. The fragments were purified using Qiaquick PCR columns (Qiagen), analyzed on an ABI 3130xL genetic analyzer (Applied Biosystems) with peak positions identified by using a set of X-rhodamine (ROX)-labeled MapMarker1000 molecular weight standards (BioVentures). The raw capillary electrophoresis data was processed using Attagraph software (Attagene).

Structure (SMILES)	outcome	AC50
CCN(Cc1c(F)cccc1Cl)c1c([N+](=O)[O-])cc(C(F)(F)F)cc1[N+](=O)[O-]	inactive	inconclusive: 23.4 µM
CC(=O)[C@H]1CC[C@H]2[C@@H]3CC=C4C[C@@H](O)CC[C@]4(C)[C@H]3CC[C@]12C		inconclusive: 49.5 µM
Cc1cc(C2(c3cc(C)c(O)cc3C)OS(=O)(=O)c3ccccc32)c(C)cc1O	inactive	
CSc1nnc(C(C)(C)C)c(=O)[nH]1	inactive	
NCc1ccco1	inactive	
[O-][n+]1ccc(Cl)cc1	inactive	
Nc1ccc(Oc2ccc(N)c(N)c2)cc1	inactive	
Cc1ccc(C=O)s1	inactive	
O=C(CC(=O)C(F)(F)C(F)(F)F)C(F)(F)F		inconclusive: 150 µM
NCCOCCOCCN		inconclusive: 0.00914 µM
OCc1cccc(Oc2ccccc2)c1	inactive	
Oc1ccc(Cc2ccccc2O)cc1		inconclusive: 27.2 µM
CC(=O)NCCO	inactive	
COc1ccc(C(=O)/C(Br)=C\C(=O)O)cc1		inconclusive: 37.2 µM
CCCCCCOC(=O)CCC		inconclusive: 100 µM
Cc1cc(=O)oc2cc(N(C)C)ccc12		inconclusive: 35.6 µM
COC(=O)CC(C(C)=O)C(=O)OC (stereo not given)		inconclusive: 158 µM

Structure (SMILES)	outcome	AC50
NC(=O)C(F)(F)C(F)(F)C(F)(F)C(F)(F)C(N)=O	inactive	
CC(C)(C)OC(=O)c1ccc(O)cc1		inconclusive: 100 µM
O=C(CS)OCCOC(=O)CS	inactive	
Cc1oc2c(NC(=O)c3c(Cl)cccc3Cl)cccc2c1C(C)(C)O		inconclusive: 4.83 µM
FC(F)(F)C(F)(F)C(F)(F)C(F)(F)C(F)(F)C(F)(F)CC[Si](Cl)(Cl)Cl	inactive	
CC(=O)Nc1ccccc1O	inactive	
CC(=O)O[C@H]1C[C@@H]2CC[C@@]1(C)C2(C)C	inactive	
C[C@H]1C[C@H]2[C@@H]3CCC4=CC(=O)C=C[C@]4(C)[C@@]3(F)[C@@H](O)C[C@]2(C)[C@@]1(O)C(=O)CO		inconclusive: 100 µM
CC1COC(=O)O1 (stereo not given)	inactive	
CC1C(C)(C)C2=C(C(=O)CCC2)C1(C)C (stereo not given)		inconclusive: 100 µM
COC(=O)/C=C\C(=O)OC		inconclusive: 100 µM
COC(=O)c1ccc([N+](=O)[O-])cc1	inactive	
CC(C)OC=O	inactive	
CC(C)(C)c1csc(-c2cc3cc(OCc4ccccc4CC(=O)O)ccc3o2)n1		inconclusive: 16.6 µM
CCCCCCCC(OC)OC		inconclusive: 50 µM
O=C(O)C1CCC(C(=O)O)CC1 (stereo not given)		inconclusive: 100 µM
OCC(O)CC(F)(F)C(F)(F)C(F)(F)C(F)(F)F (stereo not given)		inconclusive: 30.3 µM

Fetched one by one from the entries so far, 2 records:
Structure (SMILES)	outcome	AC50
O=C(CS)OCCOC(=O)CS	inactive	
COC(=O)/C=C\C(=O)OC		inconclusive: 100 µM
